# Laboratory results taken from US20090010942A1, “NOVEL PRIMATE CHITINASES AND USES THEREFOR” (WYETH, priority 2007, published 2009).
# For at least one compound, name, drawing or mass did not settle the structure.
# Test system: mNC
# Assay: methylallosamidin inhibition of mNC, chitobiose-4MU substrate
# Type: biochemical, cynomolgus monkey
# Settings: mNC versus hAMCase
# Description: Analysis of hAMCase and mNC inhibition by methylallosamidin was performed by incubating various concentrations of methylallosamidin with 2 nM mNC or 2 nM hAMCase for 10 minutes prior to the addition of 5 μM chitobiose-4MU substrate. Maximal activity was determined by the initial rate of the enzyme activity without the inhibitor methylallosamidin. The percentage of enzyme activity was then calculated and plotted for each concentration of methylallosamidin compared to maximal activity. For the data shown in FIGS. 15C and 15D, the maximal initial rate (RFU/sec) is 1.1 for hAMCase and 21.0 for mNC. […] Conversely, 10 times more methylallosaminidin was required to inhibit mNC than hAMCase.
structure (smiles),measurement,value
CC(=O)N[C@H]1[C@H](O[C@H]2[C@@H](O)[C@@H](NC(C)=O)[C@H](O[C@H]3[C@H](O)[C@H]4N=C(N(C)C)O[C@H]4[C@@H]3CO)O[C@@H]2CO)O[C@H](CO)[C@@H](O)[C@H]1O [allosamidin],inhibitor concentration for half-maximal inhibition of mNC relative to hAMCase,about 10 fold
